# In US20250282882A1:
# No constants are given. Whether binding was seen depends on the method and setting. Some entries that bind do so weakly or less than the wild type. Tags and fused reporters may be left off the sequences shown.
# T1: OX40-Fc (UniProt P43489)
# T1 sequence (looked up): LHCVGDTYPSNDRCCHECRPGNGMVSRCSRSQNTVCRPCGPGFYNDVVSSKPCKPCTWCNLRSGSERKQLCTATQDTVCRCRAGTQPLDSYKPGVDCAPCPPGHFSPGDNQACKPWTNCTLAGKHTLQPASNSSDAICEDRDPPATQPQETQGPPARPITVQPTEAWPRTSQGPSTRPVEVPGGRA
# B1: anti-OX40 antibody Drug Substance (DS) (antibody, human IgG1, kappa, N297A, V domains shown)
# VH: QVQLVQSGAEVKKPGASVKVSCKASGYTFTSYWVDWVRQAPGQGLEWMGNIYPSDSETHYNQKFKDRVTMTRDTSTSTVYMELSSLRSEDTAVYYCARSYGYYGTWFAYWGQGTLVTVSS
# VL: DIVMTQSPDSLAVSLGERATINCRASESVDSSGNSFMHWYQQKPGQPPKLLIYRASNLESGVPDRFSGSGSGTDFTLTISSLQAEDVAVYYCQQSNEDPWTFGGGTKLEIKR
# Biological target: T1, OX40-Fc
# Assay: plate binding assay, OX40-Fc coated
binder,measurement,value
B1,binding,binds
